The target of one experiment is Recombinant human HDAC6 (Homo sapiens, UniProt Q9UBN7). Nature of the experiment: HDAC6 biochemical assay, AMC-labeled peptide substrate. Conditions: read-out: HDAC Isoform IC50 (nM) 6.
Another experiment has as its target Human HDAC11 (Homo sapiens, UniProt Q96DB2). Nature of the experiment: HDAC11 biochemical assay, class IIa-specific substrate. Conditions: read-out: HDAC Isoform IC50 (nM) 11.
The next experiment deals with Human HDAC10 (Homo sapiens, UniProt Q969S8). Nature of the experiment: HDAC10 biochemical assay, AMC-labeled peptide substrate. The following applies: read-out: HDAC Isoform IC50 (nM) 10.
In experiment [1] the target is Complex of human HDAC3 and human NCOR2 (Homo sapiens, UniProt O15379). Nature of the experiment: HDAC3 biochemical assay, AMC-labeled peptide substrate. The following applies: read-out: HDAC Isoform IC50 (nM) 3.
A further experiment deals with Human HDAC1 (Homo sapiens, UniProt Q13547). The experiment can be described thus: HDAC1 biochemical assay, AMC-labeled peptide substrate. Conditions: read-out: HDAC Isoform IC50 (nM) 1.
Another experiment concerns the target Human HDAC2 (Homo sapiens, UniProt Q92769). Nature of the experiment: HDAC2 biochemical assay, AMC-labeled peptide substrate. The following applies: read-out: HDAC Isoform IC50 (nM) 2.
A further experiment has as its target Human HDAC7 (Homo sapiens, UniProt Q8WUI4). Nature of the experiment: HDAC7 biochemical assay, class IIa-specific substrate. Conditions: read-out: HDAC Isoform IC50 (nM) 7.
The next experiment deals with Human HDAC9 (Homo sapiens, UniProt Q9UKV0). Nature of the experiment: HDAC9 biochemical assay, class IIa-specific substrate. Conditions: read-out: HDAC Isoform IC50 (nM) 9.
The target of another experiment is Human HDAC4 (Homo sapiens, UniProt P56524). Nature of the experiment: HDAC4 biochemical assay, class IIa-specific substrate. Conditions: read-out: HDAC Isoform IC50 (nM) 4.
In a further experiment the target is Human HDAC5 (Homo sapiens, UniProt Q9UQL6). Nature of the experiment: HDAC5 biochemical assay, class IIa-specific substrate. The following applies: read-out: HDAC Isoform IC50 (nM) 5.
A further experiment has as its target Human HDAC8 (Homo sapiens, UniProt Q9BY41). The experiment can be described thus: HDAC8 biochemical assay, AMC-labeled peptide substrate. Conditions: read-out: HDAC Isoform IC50 (nM) 8.

Amino acid sequences for entries named in this document (tags omitted). Residues count along the entry.
UniProt Q9UBN7, whole entry: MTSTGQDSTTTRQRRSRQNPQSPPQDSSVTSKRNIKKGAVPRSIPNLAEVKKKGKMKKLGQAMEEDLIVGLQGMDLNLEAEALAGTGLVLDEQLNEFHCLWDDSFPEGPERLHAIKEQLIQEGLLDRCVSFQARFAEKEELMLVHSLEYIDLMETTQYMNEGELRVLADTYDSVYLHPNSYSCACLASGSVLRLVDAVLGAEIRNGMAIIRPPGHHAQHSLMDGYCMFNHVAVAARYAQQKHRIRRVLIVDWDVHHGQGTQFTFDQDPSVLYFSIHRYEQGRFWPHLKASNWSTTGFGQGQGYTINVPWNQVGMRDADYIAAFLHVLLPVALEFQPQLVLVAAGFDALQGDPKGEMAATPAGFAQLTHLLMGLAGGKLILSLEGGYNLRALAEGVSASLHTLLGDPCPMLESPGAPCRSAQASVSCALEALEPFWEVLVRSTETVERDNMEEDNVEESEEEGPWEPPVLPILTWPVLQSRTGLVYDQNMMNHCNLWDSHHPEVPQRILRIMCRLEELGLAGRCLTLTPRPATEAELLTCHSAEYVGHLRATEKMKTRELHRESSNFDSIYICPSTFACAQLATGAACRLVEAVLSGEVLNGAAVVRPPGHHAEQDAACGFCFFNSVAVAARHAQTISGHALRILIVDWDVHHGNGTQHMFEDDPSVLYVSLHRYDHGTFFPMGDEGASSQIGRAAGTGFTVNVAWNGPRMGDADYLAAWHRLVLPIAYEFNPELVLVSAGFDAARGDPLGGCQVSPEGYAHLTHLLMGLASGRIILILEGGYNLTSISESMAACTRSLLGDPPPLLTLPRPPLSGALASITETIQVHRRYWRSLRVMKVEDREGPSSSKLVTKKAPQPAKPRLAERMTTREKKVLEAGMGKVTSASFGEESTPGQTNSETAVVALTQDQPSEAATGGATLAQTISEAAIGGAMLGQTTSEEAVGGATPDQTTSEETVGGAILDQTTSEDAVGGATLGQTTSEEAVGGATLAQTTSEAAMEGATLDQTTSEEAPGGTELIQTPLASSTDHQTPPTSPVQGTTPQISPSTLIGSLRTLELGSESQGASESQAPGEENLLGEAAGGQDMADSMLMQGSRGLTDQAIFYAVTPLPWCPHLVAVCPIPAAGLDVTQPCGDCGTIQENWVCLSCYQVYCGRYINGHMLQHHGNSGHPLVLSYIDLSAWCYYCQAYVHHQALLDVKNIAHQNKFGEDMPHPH
UniProt Q96DB2, whole entry: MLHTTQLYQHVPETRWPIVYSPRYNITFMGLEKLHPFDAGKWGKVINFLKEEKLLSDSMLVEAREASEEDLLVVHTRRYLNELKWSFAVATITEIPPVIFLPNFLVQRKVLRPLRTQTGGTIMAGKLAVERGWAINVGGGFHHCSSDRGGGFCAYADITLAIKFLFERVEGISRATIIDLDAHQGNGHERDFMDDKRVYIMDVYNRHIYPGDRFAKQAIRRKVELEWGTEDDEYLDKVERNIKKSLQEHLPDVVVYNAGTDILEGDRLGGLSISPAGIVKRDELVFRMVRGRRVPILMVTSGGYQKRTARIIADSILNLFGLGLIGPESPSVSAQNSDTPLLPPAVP
UniProt Q969S8, 1-481 limits assumed: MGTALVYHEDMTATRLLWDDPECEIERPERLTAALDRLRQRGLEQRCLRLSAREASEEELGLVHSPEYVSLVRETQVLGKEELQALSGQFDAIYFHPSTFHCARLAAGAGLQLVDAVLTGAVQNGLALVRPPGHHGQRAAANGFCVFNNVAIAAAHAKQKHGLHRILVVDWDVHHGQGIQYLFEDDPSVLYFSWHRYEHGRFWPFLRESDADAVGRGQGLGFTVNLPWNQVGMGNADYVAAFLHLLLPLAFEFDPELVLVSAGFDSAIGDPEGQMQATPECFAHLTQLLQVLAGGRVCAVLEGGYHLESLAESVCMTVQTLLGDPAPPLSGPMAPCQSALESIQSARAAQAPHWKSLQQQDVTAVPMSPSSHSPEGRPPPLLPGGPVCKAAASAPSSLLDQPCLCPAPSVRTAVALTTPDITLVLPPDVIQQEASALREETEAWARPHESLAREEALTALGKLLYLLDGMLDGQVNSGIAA
UniProt O15379, whole entry: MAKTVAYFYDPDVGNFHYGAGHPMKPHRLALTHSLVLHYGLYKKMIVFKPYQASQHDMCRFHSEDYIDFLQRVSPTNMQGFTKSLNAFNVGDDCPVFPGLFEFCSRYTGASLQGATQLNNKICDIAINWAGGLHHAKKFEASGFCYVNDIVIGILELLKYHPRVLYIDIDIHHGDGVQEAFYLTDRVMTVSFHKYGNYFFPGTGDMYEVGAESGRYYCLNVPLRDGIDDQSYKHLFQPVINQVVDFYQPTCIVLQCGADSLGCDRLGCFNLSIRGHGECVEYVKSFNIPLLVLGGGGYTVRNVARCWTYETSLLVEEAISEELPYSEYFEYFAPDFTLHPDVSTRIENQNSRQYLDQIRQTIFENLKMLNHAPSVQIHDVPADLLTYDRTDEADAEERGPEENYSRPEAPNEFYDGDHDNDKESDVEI
UniProt Q13547, whole entry: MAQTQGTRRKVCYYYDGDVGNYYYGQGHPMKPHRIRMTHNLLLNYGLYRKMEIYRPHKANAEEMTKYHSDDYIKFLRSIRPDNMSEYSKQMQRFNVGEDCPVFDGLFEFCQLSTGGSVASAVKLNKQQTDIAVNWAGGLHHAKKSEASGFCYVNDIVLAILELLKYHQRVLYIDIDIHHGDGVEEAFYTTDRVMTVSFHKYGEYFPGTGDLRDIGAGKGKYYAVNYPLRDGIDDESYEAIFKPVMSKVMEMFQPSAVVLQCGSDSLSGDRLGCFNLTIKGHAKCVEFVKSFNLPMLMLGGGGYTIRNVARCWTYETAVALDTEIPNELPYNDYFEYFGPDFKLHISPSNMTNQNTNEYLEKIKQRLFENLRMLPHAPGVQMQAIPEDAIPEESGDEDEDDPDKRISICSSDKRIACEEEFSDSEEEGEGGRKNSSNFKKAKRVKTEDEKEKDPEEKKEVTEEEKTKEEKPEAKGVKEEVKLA
UniProt Q92769, whole entry: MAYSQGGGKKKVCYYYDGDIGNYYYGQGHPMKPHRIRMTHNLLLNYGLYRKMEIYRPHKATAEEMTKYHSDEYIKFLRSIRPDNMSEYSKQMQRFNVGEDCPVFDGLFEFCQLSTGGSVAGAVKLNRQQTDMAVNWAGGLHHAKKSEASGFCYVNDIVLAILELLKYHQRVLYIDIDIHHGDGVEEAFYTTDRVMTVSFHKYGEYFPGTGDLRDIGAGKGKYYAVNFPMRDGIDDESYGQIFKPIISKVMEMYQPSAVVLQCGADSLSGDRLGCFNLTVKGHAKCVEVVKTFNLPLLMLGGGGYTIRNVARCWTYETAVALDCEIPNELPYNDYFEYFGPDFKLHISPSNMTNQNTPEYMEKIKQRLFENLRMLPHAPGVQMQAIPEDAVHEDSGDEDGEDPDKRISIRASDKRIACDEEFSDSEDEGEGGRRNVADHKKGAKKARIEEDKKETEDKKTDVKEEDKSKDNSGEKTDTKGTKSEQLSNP
UniProt Q8WUI4, 518-952 limits assumed: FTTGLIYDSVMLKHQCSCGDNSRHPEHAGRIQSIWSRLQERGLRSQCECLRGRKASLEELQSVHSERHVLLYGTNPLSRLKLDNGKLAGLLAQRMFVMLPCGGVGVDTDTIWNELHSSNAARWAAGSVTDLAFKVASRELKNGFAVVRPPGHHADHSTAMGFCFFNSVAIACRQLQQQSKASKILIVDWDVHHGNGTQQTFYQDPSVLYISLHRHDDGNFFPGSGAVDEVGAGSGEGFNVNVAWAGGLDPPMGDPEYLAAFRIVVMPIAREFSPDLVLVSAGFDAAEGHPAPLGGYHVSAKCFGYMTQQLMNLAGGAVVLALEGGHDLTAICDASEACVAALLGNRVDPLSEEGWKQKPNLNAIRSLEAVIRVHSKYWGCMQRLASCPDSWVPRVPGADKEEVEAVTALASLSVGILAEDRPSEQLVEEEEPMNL
UniProt Q9UKV0, 604-1066 isoform 5 limits assumed: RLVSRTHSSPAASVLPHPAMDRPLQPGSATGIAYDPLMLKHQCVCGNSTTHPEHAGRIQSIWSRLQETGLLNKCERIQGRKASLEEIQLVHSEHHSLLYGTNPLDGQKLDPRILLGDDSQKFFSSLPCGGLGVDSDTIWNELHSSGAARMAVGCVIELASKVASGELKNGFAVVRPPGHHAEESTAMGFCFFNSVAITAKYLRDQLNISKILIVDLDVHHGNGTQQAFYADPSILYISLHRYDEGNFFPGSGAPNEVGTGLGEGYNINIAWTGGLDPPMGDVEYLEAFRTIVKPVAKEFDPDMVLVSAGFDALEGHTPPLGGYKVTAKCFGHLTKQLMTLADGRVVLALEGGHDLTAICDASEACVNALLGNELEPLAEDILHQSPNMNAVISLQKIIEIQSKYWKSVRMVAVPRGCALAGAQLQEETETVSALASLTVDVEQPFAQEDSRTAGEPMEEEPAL
UniProt P56524, 627-1084 limits assumed: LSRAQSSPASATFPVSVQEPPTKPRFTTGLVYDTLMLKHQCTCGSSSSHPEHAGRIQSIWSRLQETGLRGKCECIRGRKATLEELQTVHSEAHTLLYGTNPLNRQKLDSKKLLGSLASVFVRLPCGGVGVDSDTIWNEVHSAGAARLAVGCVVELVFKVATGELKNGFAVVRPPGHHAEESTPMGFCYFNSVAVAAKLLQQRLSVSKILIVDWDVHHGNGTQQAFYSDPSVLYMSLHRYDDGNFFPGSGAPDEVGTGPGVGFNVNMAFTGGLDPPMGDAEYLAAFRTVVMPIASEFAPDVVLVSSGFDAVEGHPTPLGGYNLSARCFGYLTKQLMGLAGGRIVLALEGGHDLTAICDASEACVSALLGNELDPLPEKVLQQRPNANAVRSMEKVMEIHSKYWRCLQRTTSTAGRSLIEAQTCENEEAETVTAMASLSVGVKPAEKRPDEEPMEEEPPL
UniProt Q9UQL6, 656-1122 limits assumed: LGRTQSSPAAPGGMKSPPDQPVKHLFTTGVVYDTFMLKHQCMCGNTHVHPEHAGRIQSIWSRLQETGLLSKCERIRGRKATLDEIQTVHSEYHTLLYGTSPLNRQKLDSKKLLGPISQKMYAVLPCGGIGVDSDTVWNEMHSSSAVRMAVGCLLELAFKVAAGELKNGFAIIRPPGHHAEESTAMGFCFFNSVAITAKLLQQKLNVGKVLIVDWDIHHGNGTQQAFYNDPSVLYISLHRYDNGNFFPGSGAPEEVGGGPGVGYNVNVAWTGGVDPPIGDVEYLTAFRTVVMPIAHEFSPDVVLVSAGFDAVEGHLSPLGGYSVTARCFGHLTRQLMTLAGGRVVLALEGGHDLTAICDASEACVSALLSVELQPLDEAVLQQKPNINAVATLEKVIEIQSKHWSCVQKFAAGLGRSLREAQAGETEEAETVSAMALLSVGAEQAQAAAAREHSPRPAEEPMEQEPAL
UniProt Q9BY41, whole entry: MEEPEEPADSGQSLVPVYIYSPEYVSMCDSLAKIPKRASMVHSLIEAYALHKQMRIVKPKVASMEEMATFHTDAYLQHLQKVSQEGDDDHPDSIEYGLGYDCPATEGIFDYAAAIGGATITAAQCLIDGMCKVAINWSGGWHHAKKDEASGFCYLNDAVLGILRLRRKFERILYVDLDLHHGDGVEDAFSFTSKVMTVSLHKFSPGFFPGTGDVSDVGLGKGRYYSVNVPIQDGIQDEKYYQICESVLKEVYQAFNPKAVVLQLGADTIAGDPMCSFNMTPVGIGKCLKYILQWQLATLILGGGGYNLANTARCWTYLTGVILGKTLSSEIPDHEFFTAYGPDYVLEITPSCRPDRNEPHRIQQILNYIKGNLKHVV
UniProt Q9Y618, 395-489 partner limits assumed: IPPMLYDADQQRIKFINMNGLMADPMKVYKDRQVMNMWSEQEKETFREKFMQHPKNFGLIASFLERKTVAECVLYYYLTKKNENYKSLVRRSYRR

The structures given here were assigned with low confidence; some may be wrong.

`FC(F)(F)c1nc(-c2ccc(CN(c3cnccn3)c3ncccc3C(F)(F)F)s2)no1`: the IC50 was below 10000 nM at Recombinant human HDAC6; above 10000 nM on Human HDAC11; above 10000 nM at Human HDAC10; above 10000 nM in experiment [1]; above 10000 nM on Human HDAC1; above 10000 nM on Human HDAC2. In addition, the IC50 on Human HDAC7 is below 10000 nM; at Human HDAC9, below 10000 nM; at Human HDAC4, below 1000 nM; on Human HDAC5 it was below 1000 nM; at Human HDAC8, above 10000 nM.

The values above are taken from patent US20210038607A1.
